Data taken from PubChem BioAssay AID588391 (Broad Institute, 2011).
Among all 350,000 compounds or so, about 180 (0.051%) were called active. Inconclusive means that the source gave no clear call. Such entries were picked first, then a sample of the others.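 Rule for the calls: active = mean inhibition across replicates of 30% or more, whatever share of single replicates reach that level; inconclusive = mean inhibition below 30% while every single replicate reaches 30%; inactive = the rest.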

The chains behind the UniProt entries cited, without tags or fusion partners. Where a name states a change or a piece, a line headed by the entry shows the natural chain unless it says otherwise.
UniProt P07237: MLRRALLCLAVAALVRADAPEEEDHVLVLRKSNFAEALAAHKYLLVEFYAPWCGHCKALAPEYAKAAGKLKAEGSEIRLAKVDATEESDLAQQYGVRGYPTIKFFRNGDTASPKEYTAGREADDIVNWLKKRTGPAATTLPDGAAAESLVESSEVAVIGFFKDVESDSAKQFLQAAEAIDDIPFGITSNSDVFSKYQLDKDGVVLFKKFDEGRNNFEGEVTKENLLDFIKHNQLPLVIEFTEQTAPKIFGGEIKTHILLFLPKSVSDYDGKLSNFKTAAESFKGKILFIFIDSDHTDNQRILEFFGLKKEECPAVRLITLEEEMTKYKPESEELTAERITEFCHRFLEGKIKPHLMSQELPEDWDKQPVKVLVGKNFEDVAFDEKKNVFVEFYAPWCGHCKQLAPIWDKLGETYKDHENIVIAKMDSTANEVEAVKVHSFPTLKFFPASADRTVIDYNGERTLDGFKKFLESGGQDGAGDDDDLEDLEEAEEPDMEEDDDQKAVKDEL

The compounds below were run against Protein disulfide-isomerase (Homo sapiens) (UniProt P07237) (assay: blockers of PDI-driven insulin aggregation – biochemical, turbidity, single point, plate reader, primary screen (AID 588391;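 note: absorbance from insulin aggregation driven by PDI reduction with DTT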)). Conditions: A650, 90 min, at 10 µM, active compounds read high.

| SMILES | inhibition |
| --- | --- |
| C#CCOCCOCCOCCNc1nc(N2CCN(C(=O)[C@H](CC(N)=O)n3cc([C@@H](N)CC(N)=O)nn3)CC2)nc(N2CCN(C(=O)[C@H](CC(N)=O)n3cc([C@@H](N)CC(N)=O)nn3)CC2)n1 | inactive: 5.9% |
| COC(=O)C(Cc1ccc(O)cc1)N1Cc2ccccc2C1=O (stereo not given) | inconclusive: 31.8% |
| COc1ccc(C2c3ccc(O)cc3Oc3ncn4nc(-c5cccnc5)nc4c32)cc1OC (stereo not given) | active: 41.4% |
| Cc1cc(C(=O)O)ccc1-c1ccc(/C=C2\SC(=O)N(CC(=O)Nc3ccc4c(c3)OCO4)C2=O)o1 | inconclusive: 49.5% |
| CCSc1nsc(NC(=O)Nc2ccc(F)cc2F)n1 | inactive: 4.16% |
| NC(=O)c1nsc(C(=O)N(CC(=O)NCc2ccc(F)cc2)Cc2ccco2)c1N | inconclusive: 38% |
| CC1(C(=O)Nc2ccc3c(c2)OCCO3)CCN1C(=O)C1(c2ccc(Cl)cc2)CC1 (stereo not given) | inconclusive: 35.2% |
| CCN1C(=O)[C@@H]2[C@@H](c3ccc(-c4ccc(Cl)c(Cl)c4)cc3)N3CCCC[C@@]3(C(=O)OC)[C@@H]2C1=O | inactive: -3.59% |
| C=CCNC(=S)NNC(=O)C(CCCC)CC(C)(C)O (stereo not given) | inconclusive: 30.3% |
| Cn1c(O)c(/C=C2\C=Nc3ccccc32)sc1=Nc1ccc(C(=O)O)cc1 | active: 54.2% |
| COc1cccc(NS(=O)(=O)c2ccc3c(c2)C2C=CCC2C(c2ccc(C(=O)O)cc2)N3)c1 (stereo not given) | inconclusive: 52.8% |
| COc1cccc(C(=O)c2cc3cc(Cl)ccc3[nH]2)c1 | inactive: -0.774% |
| CC(=O)N1CCC(C(=O)NCCOc2cccc(C)c2)CC1 | inconclusive: 42.3% |
| CC(C)c1ccc(/C=N/NC(=O)c2ccc(-n3cnnn3)cc2)cc1 | inconclusive: 30% |
| COc1ccc(NC(=O)Nc2nnc(C(C)(C)C)s2)cc1 | inactive: 6.79% |
| COc1cc(C(C)=O)ccc1OCC(=O)NCCCn1nc(C)cc1C | inconclusive: 31.1% |
| C[C@]12C=CC(=O)C=C1CC[C@@H]1C2=CC[C@]2(C)[C@@H](C(=O)CN3CCN(c4cc(N5CCCC5)nc(N5CCCC5)n4)CC3)CC[C@@H]12 | inconclusive: 58.1% |
| CN(C)C(=O)CSc1nnc([C@H](Cc2c[nH]c3ccccc23)NC(=O)OC(C)(C)C)o1 | active: 45.5% |
| C[C@@H](C(=O)NCc1ccccc1)N1C(=O)C2CC=CCC2C1=O (stereo not given in full) | inconclusive: 35% |
| COc1ccc(C2C(C(C)=O)=C(O)C(=O)N2CCc2c[nH]c3ccccc23)cc1OC (stereo not given) | inconclusive: 48.7% |
| Cc1ccc(NC(=O)CSc2nccn2Cc2ccccc2)cc1C | inactive: -6.38% |
| Cc1sc(NC(=O)CCl)c(C(=O)c2ccccc2)c1C | active: 71.6% |
| O=C(/C=C/c1ccc2c(c1)OCCO2)c1ccc(O)cc1 | inconclusive: 42.6% |
| CC1CCN(C(=O)COC(=O)c2ccc(N3CCCC3=O)cc2)CC1 | inactive: -5.09% |
| Cc1cc(=O)c(C(=O)Nc2cccc(C(=O)NC3CC3)c2)nn1-c1ccccc1 | inconclusive: 102% |
| Cc1ccc2nsnc2c1NC(=O)c1cccnc1Cl | inconclusive: 35.1% |
| COc1ccc(N(CC(=O)NCCSC2CCCCC2)S(=O)(=O)c2ccccc2)c(OC)c1 | inconclusive: 31.8% |
| CN(C(=O)CSc1nc(N)c2c3c(sc2n1)CSC(C)(C)C3)c1ccccc1 | inconclusive: 30% |
| CC1(c2ccc3ccccc3c2)NC(=O)N(CC(=O)Nc2cccc(S(=O)(=O)N3CCOCC3)c2)C1=O (stereo not given) | inconclusive: 32% |
| O=[N+]([O-])c1cccc(C=NNc2ccc3ccccc3n2)c1O | inactive: 8.39% |

Not a retest: entries from further up.

| SMILES | inhibition |
| --- | --- |
| COc1cc(C(C)=O)ccc1OCC(=O)NCCCn1nc(C)cc1C | inconclusive: 31.1% |
| C[C@]12C=CC(=O)C=C1CC[C@@H]1C2=CC[C@]2(C)[C@@H](C(=O)CN3CCN(c4cc(N5CCCC5)nc(N5CCCC5)n4)CC3)CC[C@@H]12 | inconclusive: 58.1% |
